# According to PubChem BioAssay AID624133 (Broad Institute, 2012):
# Hit rate of the full screen: of about 1,600 compounds, about 1,300 (81%) were called active. No rule for the calls is given here. So high a share suggests a set chosen from earlier hits. The list shows a part of the results, in another mix than the full data. Potency and affinity values are given separately.
# Assay: non-specific 3'UTR reporter inhibition in Clone20-Shn3RL – cell-based, Renilla luciferase, cherry-picked, counter-screen for Shn3 inhibitor project, dose response (AID 624133);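 also: 0% = neutral control wells and -100% = positive control wells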
# Details: Clone20-Shn3RL cells, Renilla luciferase luminescence, 24 h; at 35 µM (top of the series)
row,Compound,"activity change, negative = inhibition [%]"
1,COC(=O)C1=C(c2ccc(-c3ccccc3)c(F)c2)C[C@@H]2CC[C@H]1N2C(=O)N1CCCC1,-62.5
2,CCN1C[C@]2(COC)CC[C@H](OC)[C@@]34C1[C@]1(OCO[C@@]15C[C@H](OC)[C@H]1C[C@@H]3[C@@H]5[C@H]1OC)[C@@H](O)[C@H]24,50
3,C[C@H]1CCC/C=C/[C@@H]2C[C@H](O)C[C@H]2[C@H](O)/C=C/C(=O)O1,5.56
4,C=C1C(=O)O[C@H]2[C@H]1[C@H](OC(=O)CC(=O)O[C@@H]1C[C@@H](C)[C@@H]3C=CC(=O)[C@@]3(C)[C@H]3OC(=O)C(=C)[C@H]13)C[C@@H](C)[C@H]1C=CC(=O)[C@]12C,-112
5,CC(=O)O[C@H]1CCC2C3CC[C@H]4[C@@H](O)[C@H](O)CC[C@]4(C)C3CC[C@@]21C (stereo partly drawn),46.7
6,C[C@]12CCC3C(CC[C@H]4C[C@H](O)CC[C@]34C)C1CCC2=O (stereo partly drawn),70.8
7,CCOC(=O)C1C(=O)NC2(C)CC1c1cc(OC)ccc1O2 (stereo not drawn),25
8,COc1cccc2c1O[C@H]1C(=O)CC[C@H]3CN(C)CCC231 (stereo partly drawn),25
